Laboratory results: PubChem BioAssay AID720505 (Drosophila RNAi Screening Center, 2013)
Screen: 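Fly regulators or components of the CRAC channel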 (primary screen). Cell system: Drosophila S2R+ cells. Reagents: long dsRNA against Drosophila genes. Conditions: thapsigargin (2 µM) in calcium-free buffer to empty internal stores, then 2 mM calcium added back. Detection: 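Stores emptied by 2 µM thapsigargin without calcium, then 2 mM calcium re-added; fluo-4 fluorescence followed by FLIPR in 384-well plates, per-well averaged endpoint, raw; two screen passes, some wells retested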. Scale: calcium signal and retest calcium signal: higher = more calcium entry after store depletion. Call rule: 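Knock-downs counted as hits when calcium entry dropped relative to STIM1 positive and Rho1 negative controls present on each plate; roughly 1500 genes called, with reductions of differing size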. Calls: active = called as lowering calcium entry; inactive = not called.
The deposit covers about 20,000 reagents; this is a random part of those that have a named target and a result. Of all reagents, about 2,100 (10%) are marked active. 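Raw plate signals without normalisation; calls rest on control-based scores that were not deposited; replicate 2 separates called from uncalled poorly.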 The numbers tell different reagents against one gene apart. A plus sign joins genes that one reagent is predicted to hit. Not stated in the record: the amount of reagent, the time to read-out.

gene	reagent	calcium signal, replicate 1	calcium signal, replicate 2	retest calcium signal, replicate 1	retest calcium signal, replicate 2	activity call
CG42565	1	105	146			inactive
pug	1	171	115			inactive
CG5721	1	162	113			inactive
CG34178 + CG34177	1	110	109			inactive
CG33679	1	66.1	169			active
kappaB-Ras + CG30503	1	136	140			inactive
kappaB-Ras + CG30503	2	121	117			inactive
CG32856	1					inactive
CG11241	1	130	94.9	169	122	inactive
CG11241	2	140	204			inactive
CG17287	1	165	111			inactive
ref(2)P	1	158	91.2			inactive
Eig71Ei	1	89.2	147			inactive
His2B:CG33894 + His2B:CG33872 + His2B:CG33902 + 20 more	1	34.8	53.4			active
CG30060	1	79.7	132			inactive
CG15478	1	267	74.3			inactive
CG15708	1	121	129			inactive
CycA	1	62.1	62.1			active
Clamp	1	163	93.7			inactive
Clamp	2	140	74.2			inactive
CG17361	1	82.9	105			inactive
Obp56f	1	89.6	148			inactive
CG31681	1	92.1	180			inactive
RpS15Ab + RpS15Aa	1	120	150			inactive
RpS15Ab + RpS15Aa	2	70.6	74.3			active
CG13578	1	103	200			inactive
CG1304	1	187	117			inactive
COX6AL	1	118	135			inactive
CG11362	1	71.6	194			active
CG11362	2	109	256			inactive
CG12118	1	96.6	97			inactive
qin	1	243	166			inactive
qin	2	155	111			inactive
CG13315	1	72.7	80.9			inactive
Act88F	1	85.6	82.7			inactive
CG9806	1	94.3	123			inactive
CG9399	1	170	127			inactive
CG11857	1	253	137			inactive
UQCR-14L	1	169	138			inactive
UQCR-14L	2	99.8	154			inactive
Prp40	1	120	259			inactive
CG42336	1	78.9	158			inactive
CG42336	2	95.4	126			inactive
CG42336	3	92.3	142	6779	131	inactive
Ugt303B3	1	249	178			inactive
CG4455	1	101	94.3	83.1	96.9	inactive
CG4455	2	200	109			inactive
CG13623	1	244	132			inactive
CG32695	1	110	89.4			inactive
Not11	1	92.7	133			inactive
Skp2 + CG1103	1	99.2	87.9			inactive
Skp2 + CG1103	2	108	251			inactive
CG17782	1	224	94.5			inactive
CG17782	2	108	145			inactive
jet	1	76.2	145			inactive
CG9570	1	71.1	134			active
CG8360	1	69.7	147	160	80.8	inactive
Pex16	1	129	92.5			inactive
Hinfp	1	63.4	147			active
Gnmt	1	139	124			inactive
CG30008	1	184	94.6			inactive
Nepl5	1	108	177			inactive
CheB38b	1	107	139			inactive
CG43191	1	73.8	147			inactive
CG13455	1	81.9	126			inactive
eIF4E1	1	53.3	105			active
CG13488	1	195	120			inactive
Osbp	1	158	340			inactive
tgo	1	124	137			inactive
RhoGAP18B	1	71.2	136			active
RhoGAP18B	2	188	106			inactive
RhoGAP18B	3	182	98.7			inactive
RhoGAP18B	4	184	117			inactive
IntS14	1	129	181			inactive
NaPi-III	1	79.6	135			inactive
NaPi-III	2	103	110			inactive
NaPi-III	3	99.7	165			inactive
TTLL5	1	210	185			inactive
Ir20a	1	102	99.6			inactive
CG7860	1	152	149			inactive
CG7992	1	153	85.5			inactive
CG2202	1	177	129	103	104	inactive
PCNA	1	73.9	89.6			active

Targets above whose target name starts with Q or q:
gene	reagent	calcium signal, replicate 1	calcium signal, replicate 2	retest calcium signal, replicate 1	retest calcium signal, replicate 2	activity call
qin	1	243	166			inactive
qin	2	155	111			inactive
